This passage reports binding results from publication PMC3519869.

Sequences of proteins named here, by UniProt entry; tags and fusion partners are left off.
UniProt Q8N6T7: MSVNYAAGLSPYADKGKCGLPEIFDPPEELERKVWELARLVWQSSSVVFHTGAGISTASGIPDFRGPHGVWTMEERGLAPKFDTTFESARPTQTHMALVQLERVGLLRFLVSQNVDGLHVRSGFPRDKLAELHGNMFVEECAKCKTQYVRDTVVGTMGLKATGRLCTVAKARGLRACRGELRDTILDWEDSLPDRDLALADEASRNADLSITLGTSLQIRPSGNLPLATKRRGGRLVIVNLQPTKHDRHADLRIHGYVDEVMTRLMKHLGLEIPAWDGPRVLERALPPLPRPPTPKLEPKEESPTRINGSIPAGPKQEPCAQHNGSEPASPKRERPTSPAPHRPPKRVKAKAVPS
UniProt O60264: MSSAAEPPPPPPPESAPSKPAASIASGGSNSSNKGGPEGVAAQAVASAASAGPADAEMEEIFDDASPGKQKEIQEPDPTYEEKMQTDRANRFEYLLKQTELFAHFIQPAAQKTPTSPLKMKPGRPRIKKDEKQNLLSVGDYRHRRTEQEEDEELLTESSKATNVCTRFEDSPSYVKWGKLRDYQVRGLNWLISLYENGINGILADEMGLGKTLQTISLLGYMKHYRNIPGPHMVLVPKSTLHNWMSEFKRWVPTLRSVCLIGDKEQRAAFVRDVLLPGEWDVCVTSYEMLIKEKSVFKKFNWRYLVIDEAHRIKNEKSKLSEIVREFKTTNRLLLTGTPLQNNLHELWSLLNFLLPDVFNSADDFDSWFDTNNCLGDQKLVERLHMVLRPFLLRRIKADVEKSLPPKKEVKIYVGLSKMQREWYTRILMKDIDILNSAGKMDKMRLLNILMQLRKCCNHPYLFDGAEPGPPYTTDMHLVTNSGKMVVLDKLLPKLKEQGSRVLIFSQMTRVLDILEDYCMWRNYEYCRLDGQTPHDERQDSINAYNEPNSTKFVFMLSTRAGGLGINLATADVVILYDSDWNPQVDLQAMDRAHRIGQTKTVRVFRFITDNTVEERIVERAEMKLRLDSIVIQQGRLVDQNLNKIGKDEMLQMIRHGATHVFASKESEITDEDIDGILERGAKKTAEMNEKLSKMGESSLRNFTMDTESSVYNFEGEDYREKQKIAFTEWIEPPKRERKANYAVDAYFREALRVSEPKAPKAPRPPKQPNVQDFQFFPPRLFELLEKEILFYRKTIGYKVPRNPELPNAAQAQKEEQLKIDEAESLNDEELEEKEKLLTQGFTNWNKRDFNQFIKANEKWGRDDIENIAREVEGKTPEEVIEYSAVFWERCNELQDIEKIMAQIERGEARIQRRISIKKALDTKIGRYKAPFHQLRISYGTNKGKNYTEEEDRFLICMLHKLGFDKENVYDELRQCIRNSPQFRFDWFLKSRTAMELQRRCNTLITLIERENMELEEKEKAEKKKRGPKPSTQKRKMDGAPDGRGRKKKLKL

For the assay, the target named is Flag-tagged wild type SIRT6 (human) (UniProt Q8N6T7). The experiment in a line: affinity purification with mass spectrometry; anti-Flag immunoprecipitate of Flag-SIRT6 from HEK293 cells run on SDS-PAGE, Coomassie-stained bands excised and sequenced by LC MS/MS, MASCOT search.

Results are given in words; binding and its absence hold for the method and conditions named. Binding seen in cells or lysates may run through a third protein. A yes stands for co-enrichment or nearness to the bait. Other partners may have been found.

As for SMARCA5 (from UniProt O60264 1-1052), the binding entry is recorded as “binds”.

B1: MYB-binding protein 1A (MYBBP1A) (protein, UniProt Q9BQG0 1-1328)
chain: MESRDPAQPMSPGEATQSGARPADRYGLLKHSREFLDFFWDIAKPEQETRLAATEKLLEYLRGRPKGSEMKYALKRLITGLGVGRETARPCYSLALAQLLQSFEDLPLCSILQQIQEKYDLHQVKKAMLRPALFANLFGVLALFQSGRLVKDQEALMKSVKLLQALAQYQNHLQEQPRKALVDILSEVSKATLQEILPEVLKADLNIILSSPEQLELFLLAQQKVPSKLKKLVGSVNLFSDENVPRLVNVLKMAASSVKKDRKLPAIALDLLRLALKEDKFPRFWKEVVEQGLLKMQFWPASYLCFRLLGAALPLLTKEQLHLVMQGDVIRHYGEHVCTAKLPKQFKFAPEMDDYVGTFLEGCQDDPERQLAVLVAFSSVTNQGLPVTPTFWRVVRFLSPPALQGYVAWLRAMFLQPDLDSLVDFSTNNQKKAQDSSLHMPERAVFRLRKWIIFRLVSIVDSLHLEMEEALTEQVARFCLFHSFFVTKKPTSQIPETKHPFSFPLENQAREAVSSAFFSLLQTLSTQFKQAPGQTQGGQPWTYHLVQFADLLLNHSHNVTTVTPFTAQQRQAWDRMLQTLKELEAHSAEARAAAFQHLLLLVGIHLLKSPAESCDLLGDIQTCIRKSLGEKPRRSRTKTIDPQEPPWVEVLVEILLALLAQPSHLMRQVARSVFGHICSHLTPRALQLILDVLNPETSEDENDRVVVTDDSDERRLKGAEDKSEEGEDNRSSESEEESEGEESEEEERDGDVDQGFREQLMTVLQAGKALGGEDSENEEELGDEAMMALDQSLASLFAEQKLRIQARRDEKNKLQKEKALRRDFQIRVLDLVEVLVTKQPENALVLELLEPLLSIIRRSLRSSSSKQEQDLLHKTARIFTHHLCRARRYCHDLGERAGALHAQVERLVQQAGRQPDSPTALYHFNASLYLLRVLKGNTAEGCVHETQEKQKAGTDPSHMPTGPQAASCLDLNLVTRVYSTALSSFLTKRNSPLTVPMFLSLFSRHPVLCQSLLPILVQHITGPVRPRHQACLLLQKTLSMREVRSCFEDPEWKQLMGQVLAKVTENLRVLGEAQTKAQHQQALSSLELLNVLFRTCKHEKLTLDLTVLLGVLQGQQQSLQQGAHSTGSSRLHDLYWQAMKTLGVQRPKLEKKDAKEIPSATQSPISKKRKKKGFLPETKKRKKRKSEDGTPAEDGTPAATGGSQPPSMGRKKRNRTKAKVPAQANGTPTTKSPAPGAPTRSPSTPAKSPKLQKKNQKPSQVNGAPGSPTEPAGQKQHQKALPKKGVLGKSPLSALARKKARLSLVIRSPSLLQSGAKKKAQVRKAGKP
Turning to B1, the binding result was “binds”.
